According to patent US9358247B2, “Methods and compositions for promoting activity of anti-cancer therapies” (Oncology Research International Limited, priority 2006, dated 2016):
Like-named read-outs stand apart in the source and are kept apart here.

What was measured:
Test in all cases: Cancer cell growth inhibition, SRB dye assay (single agents and 50:50 IC50 mixtures)
Assay type in all cases: cell-based
[1] = tested on: K562 cell line; details: Homo sapiens, 144 h
Protocol: (§1) Cancer cells were seeded the day before application of drug in triplicate or quadruplicate in 96-well plates, allowed to grow in the presence of drug for 6 days before cell growth relative to untreated control wells was determined with a dye assay.
(§2) Cells were seeded in triplicate or quadruplicate at 3-4,000 per microtitre well in 90 μl of RPMI culture medium/10% foetal calf serum/penicillin, streptomycin mix, treated with 10 μl of drug (prepared in a dilution plate at 10× concentration required), and allowed to grow until the controls were nearly confluent (6 days).
(§3) SRB: Plates were washed with PBS, fixed with methylated spirits, washed with tap water and stained with 50 μL/well of SRB solution (sulforhodamine, 0.4% in 1% acetic acid), followed by washing with tap water and 1% acetic acid, solubilisation in Tris and absorbance read at 564 nm in an ELISA reader.
(§4) Data was collected using ELISA plate reader software—SOFTmax PRO3.1.2, then imported into EXCEL. The mean and SD of replicates were calculated as a % of control, after subtraction of the blank value (wells with no cells). A graph was plotted of % control vs dose of agent and IC50 (half maximal inhibitory concentration) values determined.
Tumour cells were seeded in duplicate in 96-well plates at 2-5,000 per microtitre well containing RPMI culture medium/10% foetal calf serum. […]

[2] = tested on: LNCap cell line; details: Homo sapiens, 144 h, single agent, Example 2
Protocol: (§5) Cancer cells were seeded the day before application of drug in triplicate or quadruplicate in 96-well plates, allowed to grow in the presence of drug for 6 days before cell growth relative to untreated control wells was determined with a dye assay. Cells were seeded in triplicate or quadruplicate at 3-4,000 per microtitre well in 90 μl of RPMI culture medium/10% foetal calf serum/penicillin, streptomycin mix, treated with 10 μl of drug (prepared in a dilution plate at 10× concentration required), and allowed to grow until the controls were nearly confluent (6 days). SRB: Plates were washed with PBS, fixed with methylated spirits, washed with tap water and stained with 50 μL/well of SRB solution (sulforhodamine, 0.4% in 1% acetic acid), followed by washing with tap water and 1% acetic acid, solubilisation in Tris and absorbance read at 564 nm in an ELISA reader. Data was collected using ELISA plate reader software—SOFTmax PRO3.1.2, then imported into EXCEL. The mean and SD of replicates were calculated as a % of control, after subtraction of the blank value (wells with no cells). A graph was plotted of % control vs dose of agent and IC50 (half maximal inhibitory concentration) values determined. […] The cells were allowed to grow until the controls were nearly confluent after 5-6 days. […] The absorbance was read at 564 nm using an ELISA reader. […]

[3] = tested on: MCF7 cell line; details: Homo sapiens, 144 h, single agent, Example 2
Protocol: as §5

[4] = tested on: HT29 cell line; details: Homo sapiens, HT-29, 144 h, single agent, Example 2
Protocol: as §1, §2, §3, §4
(§6) Tumour cells were seeded in duplicate in 96-well plates at 2-5,000 per microtitre well containing RPMI culture medium/10% foetal calf serum. The cells were allowed to grow until the controls were nearly confluent after 5-6 days. Plates were then washed with PBS, fixed in ethanol and stained with 50 μL/well of SRB solution (sulforhodamine, 0.4% in 1% acetic acid), followed by washing with 1% acetic acid and solubilisation in Tris. The absorbance was read at 564 nm using an ELISA reader.
(§7) The IC50, or concentration required to inhibit cell growth by 50%, was determined from the percentage inhibition versus concentration data using the probit calculation methods of Finney (Finney D J (1971). Probit Analysis. 3rd Edition. Cambridge University Press).
(§8) The inhibitory data from each mixture was used to determine an IC50 of IC50 value, where the concentrations used were the Multiplying Factor values. In order to determine the actual IC50 contribution of each component in the two-component mixture, the IC50 of IC50 value was multiplied by the IC50 of the individual component. This can then be used to determine the reduction in IC50 contribution (ie, reduction in dose) of the chemotherapeutic agent due to the presence of the steroid saponin in the mixture. A simpler way of determining the reduction in dose is to use the following simple formula: […]

[5] = tested on: PC3 cell line; details: Homo sapiens, PC-3, 144 h, single agent, Example 2
Protocol: as §1, §2, §3, §4, §6, §7, §8

[6] = tested on: A549 cell line; details: Homo sapiens, 144 h, single agent, Example 2
Protocol: as §1, §2, §3, §4, §6, §7, §8

[7] = tested on: DU145 cell line; details: Homo sapiens, DU-145, 144 h, single agent, Example 2
Protocol: as §1, §2, §3, §4, §6, §7, §8

Question: How did the IC50 ([1]; Example 6, value used to make up 50:50 IC50 mixtures, read-out: IC50 values used in assay) turn out when Cc1ccc(NC(=O)c2ccc(CN3CCN(C)CC3)cc2)cc1Nc1nccc(-c2cccnc2)n1 [Imatinib] was run?
Answer: 90 nM

Question: And the IC50 ([1]; single agent, Example 2, read-out: IC50)?
Answer: 85 nM

Question: What about the IC50 [2] of the same molecule?
Answer: > 700 nM

Question: What about the IC50 [3] of the same molecule?
Answer: > 700 nM

Question: And the IC50 [4]?
Answer: > 700 nM

Question: And the IC50 [5]?
Answer: > 700 nM

Question: What about the IC50 [6] of the same molecule?
Answer: > 700 nM

Question: And the IC50 [7]?
Answer: > 700 nM
